PubChem BioAssay AID1259254, NCATS | 2017
Purpose: 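Gene knock-downs that lead to re-replication, shown by excess G2 DNA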 (primary screen). Cell system: human HCT116 colorectal cancer cells. Reagents: single siRNA against human genes. Duration: 3 days. Detection: 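Imaged Hoechst DNA stain sorts each cell into a cycle phase by DNA amount; per plate, G2 fraction set to 0% for non-targeting and 100% for GMNN siRNA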. Reading the numbers: G2 robust z-score: higher = more G2 cells, more excess DNA replication. Active means: 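An siRNA counts as active if its G2 robust z-score lies at least 5 MADs above the screen median; here such calls match roughly 38% of GMNN control or more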.
Shown is one part, drawn at random, of about 59,000 reagents tested. About 1,550 of all reagents (2.6%) count as active. 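G2 share is only a proxy for re-replication; each gene was hit by three separate siRNAs, and active genes were retested.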 Not all columns of the deposit are shown. Not stated in the record: the amount of reagent.

| target gene | PubChem SID | G2 robust z-score | Call |
| --- | --- | --- | --- |
| SIN3B (SIN3 transcription regulator family member B) | SID160735974 | 4.35 | inactive |
| SIN3B (SIN3 transcription regulator family member B) | SID160735975 | -0.434 | inactive |
| SIN3B (SIN3 transcription regulator family member B) | SID160735976 | -0.489 | inactive |
| SEC24C (SEC24 homolog C, COPII component) | SID160722665 | -0.076 | inactive |
| SEC24C (SEC24 homolog C, COPII component) | SID160722666 | 1.13 | inactive |
| SEC24C (SEC24 homolog C, COPII component) | SID160722667 | 0.343 | inactive |
| GABBR2 (gamma-aminobutyric acid type B receptor subunit 2) | SID160722517 | 2.11 | inactive |
| GABBR2 (gamma-aminobutyric acid type B receptor subunit 2) | SID160722518 | -0.715 | inactive |
| GABBR2 (gamma-aminobutyric acid type B receptor subunit 2) | SID160722519 | -0.55 | inactive |
| KRT77 (keratin 77) | SID160765273 | 3.26 | inactive |
| KRT77 (keratin 77) | SID160765274 | -1.12 | inactive |
| KRT77 (keratin 77) | SID160765275 | -0.102 | inactive |
| FAM220A (family with sequence similarity 220 member A) | SID160735116 | -0.761 | inactive |
| FAM220A (family with sequence similarity 220 member A) | SID160752709 | -1.53 | inactive |
| FAM220A (family with sequence similarity 220 member A) | SID160752710 | 0.645 | inactive |
| CEMP1 (cementum protein 1) | SID160774535 | 0.818 | inactive |
| CEMP1 (cementum protein 1) | SID160774536 | -0.792 | inactive |
| CEMP1 (cementum protein 1) | SID160774537 | 0.963 | inactive |
| CATIP (ciliogenesis associated TTC17 interacting protein) | SID160765406 | -0.412 | inactive |
| CATIP (ciliogenesis associated TTC17 interacting protein) | SID160765407 | 0.702 | inactive |
| CATIP (ciliogenesis associated TTC17 interacting protein) | SID160765408 | -0.613 | inactive |
| LIM2 (lens intrinsic membrane protein 2) | SID160733293 | -0.524 | inactive |
| LIM2 (lens intrinsic membrane protein 2) | SID160776619 | -0.818 | inactive |
| LIM2 (lens intrinsic membrane protein 2) | SID160776620 | -0.548 | inactive |
| DPYD (dihydropyrimidine dehydrogenase) | SID160730718 | -1.16 | inactive |
| DPYD (dihydropyrimidine dehydrogenase) | SID160756068 | 5.62 | active |
| DPYD (dihydropyrimidine dehydrogenase) | SID160756087 | -0.382 | inactive |
| NUP35 (nucleoporin 35) | SID160756858 | 1.85 | inactive |
| NUP35 (nucleoporin 35) | SID160756859 | 0.283 | inactive |
| NUP35 (nucleoporin 35) | SID160756860 | 0.949 | inactive |
| LRFN5 | SID160758260 | -0.932 | inactive |
| LRFN5 | SID160758262 | 1.77 | inactive |
| LRFN5 | SID160758263 | 1.69 | inactive |
| BMP4 (bone morphogenetic protein 4) | SID160728249 | 3.95 | inactive |
| BMP4 (bone morphogenetic protein 4) | SID160728260 | -0.252 | inactive |
| BMP4 (bone morphogenetic protein 4) | SID160728271 | -0.897 | inactive |
| ZNF525 (zinc finger protein 525) | SID160760475 | -0.0221 | inactive |
| ZNF525 (zinc finger protein 525) | SID160760476 | -0.661 | inactive |
| ZNF525 (zinc finger protein 525) | SID160760477 | 0.777 | inactive |
| PPIL3 (peptidylprolyl isomerase like 3) | SID160741512 | 0.307 | inactive |
| PPIL3 (peptidylprolyl isomerase like 3) | SID160741513 | 1.1 | inactive |
| PPIL3 (peptidylprolyl isomerase like 3) | SID160741514 | -1.02 | inactive |
| NISCH (nischarin) | SID160730161 | -0.012 | inactive |
| NISCH (nischarin) | SID160730162 | -0.828 | inactive |
| NISCH (nischarin) | SID160730519 | -0.118 | inactive |
| MRPS5 (mitochondrial ribosomal protein S5) | SID160748178 | 1.67 | inactive |
| MRPS5 (mitochondrial ribosomal protein S5) | SID160748180 | -1.07 | inactive |
| MRPS5 (mitochondrial ribosomal protein S5) | SID160748181 | -0.084 | inactive |
| PFDN4 (prefoldin subunit 4) | SID160714146 | 0.013 | inactive |
| PFDN4 (prefoldin subunit 4) | SID160714147 | 2.7 | inactive |
| PFDN4 (prefoldin subunit 4) | SID160714148 | -0.0183 | inactive |
| MIX23P3 (MIX23 pseudogene 3) | SID160734895 | -0.814 | inactive |
| MIX23P3 (MIX23 pseudogene 3) | SID160774509 | -0.945 | inactive |
| MIX23P3 (MIX23 pseudogene 3) | SID160774510 | -0.112 | inactive |
| LOC644277 | SID160769168 | 1.95 | inactive |
| LOC644277 | SID160769169 | -0.802 | inactive |
| LOC644277 | SID160769170 | -0.411 | inactive |
| BPIFB4 (BPI fold containing family B member 4) | SID160758891 | 0.443 | inactive |
| BPIFB4 (BPI fold containing family B member 4) | SID160758892 | 1.86 | inactive |
| BPIFB4 (BPI fold containing family B member 4) | SID160758893 | -0.0733 | inactive |
| FMO5 (flavin containing dimethylaniline monoxygenase 5) | SID160730837 | 0.321 | inactive |
| FMO5 (flavin containing dimethylaniline monoxygenase 5) | SID160766780 | 1.85 | inactive |
| FMO5 (flavin containing dimethylaniline monoxygenase 5) | SID160766800 | -0.863 | inactive |
| ILDR1 (immunoglobulin like domain containing receptor 1) | SID160763881 | 4.05 | inactive |
| ILDR1 (immunoglobulin like domain containing receptor 1) | SID160763882 | -0.318 | inactive |
| ILDR1 (immunoglobulin like domain containing receptor 1) | SID160763883 | -0.432 | inactive |
| OR1J2 (olfactory receptor family 1 subfamily J member 2) | SID160738165 | -0.441 | inactive |
| OR1J2 (olfactory receptor family 1 subfamily J member 2) | SID160738166 | -0.839 | inactive |
| OR1J2 (olfactory receptor family 1 subfamily J member 2) | SID160738168 | -0.815 | inactive |
| ZNF488 (zinc finger protein 488) | SID160755663 | -0.951 | inactive |
| ZNF488 (zinc finger protein 488) | SID160755665 | -0.0462 | inactive |
| ZNF488 (zinc finger protein 488) | SID160755666 | -0.614 | inactive |
| RNF31 (ring finger protein 31) | SID160742871 | -0.745 | inactive |
| RNF31 (ring finger protein 31) | SID160742872 | -0.62 | inactive |
| RNF31 (ring finger protein 31) | SID160742874 | 0.0502 | inactive |
| USP32 (ubiquitin specific peptidase 32) | SID160752560 | 6.02 | active |
| USP32 (ubiquitin specific peptidase 32) | SID160752561 | -0.447 | inactive |
| USP32 (ubiquitin specific peptidase 32) | SID160752562 | 1.66 | inactive |
| PPP1R16A (protein phosphatase 1 regulatory subunit 16A) | SID160753094 | -0.457 | inactive |
| PPP1R16A (protein phosphatase 1 regulatory subunit 16A) | SID160753096 | -0.283 | inactive |
| PPP1R16A (protein phosphatase 1 regulatory subunit 16A) | SID160753097 | 2.96 | inactive |
| SEPTIN1 (septin 1) | SID160754322 | -0.418 | inactive |
| SEPTIN1 (septin 1) | SID160754332 | -1.07 | inactive |
| SEPTIN1 (septin 1) | SID160754345 | -0.931 | inactive |
| MS4A1 (membrane spanning 4-domains A1) | SID160738623 | 0.0764 | inactive |
| MS4A1 (membrane spanning 4-domains A1) | SID160738634 | -0.93 | inactive |
| MS4A1 (membrane spanning 4-domains A1) | SID160738645 | 3.11 | inactive |

Copied from the entries so far for reference:
| target gene | PubChem SID | G2 robust z-score | Call |
| --- | --- | --- | --- |
| SEC24C (SEC24 homolog C, COPII component) | SID160722666 | 1.13 | inactive |
| SEC24C (SEC24 homolog C, COPII component) | SID160722667 | 0.343 | inactive |
| GABBR2 (gamma-aminobutyric acid type B receptor subunit 2) | SID160722517 | 2.11 | inactive |
| GABBR2 (gamma-aminobutyric acid type B receptor subunit 2) | SID160722518 | -0.715 | inactive |
| GABBR2 (gamma-aminobutyric acid type B receptor subunit 2) | SID160722519 | -0.55 | inactive |
| KRT77 (keratin 77) | SID160765273 | 3.26 | inactive |
| KRT77 (keratin 77) | SID160765274 | -1.12 | inactive |
| KRT77 (keratin 77) | SID160765275 | -0.102 | inactive |
| FAM220A (family with sequence similarity 220 member A) | SID160735116 | -0.761 | inactive |
